Measured values taken from PMC9481740.
Results are given in words; binding and its absence hold for the method and conditions named. Some binding calls cover weakened binding; strength is not graded here. Tags and fused reporters may be left off the sequences shown.

Target: Dynactin pointed-end (PE) capping complex (p25, p27, p62, Arp11) (UniProt Q9NZ32)
Assay: SEC; PE complex 3 µM mixed with Spindly construct 8 µM (Fig. 3 F: 4 µM and 10 µM), at least 1 h on ice; Superdex 200 5/150 (named in the legend of Fig. 5); 4°C, Spindly buffer (50 mM Hepes pH 8.0, 250 mM NaCl, 2 mM TCEP); fractions on SDS-PAGE; both purified

| binding | Binder |
| --- | --- |
| binds weakly | Spindly^1–275 (domain or fragment, UniProt Q96EA4 1-275) MEADIITNLRCRLKEAEEERLKAAQYGLQLVESQNELQNQLDKCRNEMMTMTESYEQEKYTLQREVELKSRMLESLSCECEAIKQQQKMHLEKLEEQLSRSHGQEVNELKTKIEKLKVELDEARLSEKQLKHQVDHQKELLSCKSEELRVMSERVQESMSSEMLALQIELTEMESMKTTLKEEVNELQYRQEQLELLITNLMRQVDRLKEEKEEREKEAVSYYNALEKARVANQDLQVQLDQALQQALDPNSKGNSLFAEVEDRRAAMERQLISM |
| binds weakly | ^mChSpindly^∆276–306 (protein, UniProt Q96EA4) MEADIITNLRCRLKEAEEERLKAAQYGLQLVESQNELQNQLDKCRNEMMTMTESYEQEKYTLQREVELKSRMLESLSCECEAIKQQQKMHLEKLEEQLSRSHGQEVNELKTKIEKLKVELDEARLSEKQLKHQVDHQKELLSCKSEELRVMSERVQESMSSEMLALQIELTEMESMKTTLKEEVNELQYRQEQLELLITNLMRQVDRLKEEKEEREKEAVSYYNALEKARVANQDLQVQLDQALQQALDPNSKGNSLFAEVEDRRAAMERQLISMKGSQTEFEQQERLLAMLEQKNGEIKHLLGEIRNLEKFKNLYDSMESKPSVDSGTLEDNTYYTDLLQMKLDNLNKEIESTKGELSIQRMKALFESQRALDIERKLFANERCLQLSESENMKLRAKLDELKLKYEPEETVEVPVLKKRREVLPVDITTAKDACVNNSALGGEVYRLPPQKEETQSCPNSLEDNNLQLEKSVSIYTPVVSLSPHKNLPVDMQLKKEKKCVKLIGVPADAEALSERSGNTPNSPRLAAESKLQTEVKEGKETSSKLEKETCKKLHPILYVSSKSTPETQCPQQ |
| binds | ^mChSpindly^76–605 (domain or fragment, UniProt Q96EA4 76-605) LSCECEAIKQQQKMHLEKLEEQLSRSHGQEVNELKTKIEKLKVELDEARLSEKQLKHQVDHQKELLSCKSEELRVMSERVQESMSSEMLALQIELTEMESMKTTLKEEVNELQYRQEQLELLITNLMRQVDRLKEEKEEREKEAVSYYNALEKARVANQDLQVQLDQALQQALDPNSKGNSLFAEVEDRRAAMERQLISMKVKYQSLKKQNVFNREQMQRMKLQIATLLQMKGSQTEFEQQERLLAMLEQKNGEIKHLLGEIRNLEKFKNLYDSMESKPSVDSGTLEDNTYYTDLLQMKLDNLNKEIESTKGELSIQRMKALFESQRALDIERKLFANERCLQLSESENMKLRAKLDELKLKYEPEETVEVPVLKKRREVLPVDITTAKDACVNNSALGGEVYRLPPQKEETQSCPNSLEDNNLQLEKSVSIYTPVVSLSPHKNLPVDMQLKKEKKCVKLIGVPADAEALSERSGNTPNSPRLAAESKLQTEVKEGKETSSKLEKETCKKLHPILYVSSKSTPETQCPQQ |
| binds | Spindly^156–275 (domain or fragment, UniProt Q96EA4 156-275) QESMSSEMLALQIELTEMESMKTTLKEEVNELQYRQEQLELLITNLMRQVDRLKEEKEEREKEAVSYYNALEKARVANQDLQVQLDQALQQALDPNSKGNSLFAEVEDRRAAMERQLISM |
| binds weakly | ^mChSpindly^∆26–32 (protein, UniProt Q96EA4) MEADIITNLRCRLKEAEEERLKAAQSQNELQNQLDKCRNEMMTMTESYEQEKYTLQREVELKSRMLESLSCECEAIKQQQKMHLEKLEEQLSRSHGQEVNELKTKIEKLKVELDEARLSEKQLKHQVDHQKELLSCKSEELRVMSERVQESMSSEMLALQIELTEMESMKTTLKEEVNELQYRQEQLELLITNLMRQVDRLKEEKEEREKEAVSYYNALEKARVANQDLQVQLDQALQQALDPNSKGNSLFAEVEDRRAAMERQLISMKVKYQSLKKQNVFNREQMQRMKLQIATLLQMKGSQTEFEQQERLLAMLEQKNGEIKHLLGEIRNLEKFKNLYDSMESKPSVDSGTLEDNTYYTDLLQMKLDNLNKEIESTKGELSIQRMKALFESQRALDIERKLFANERCLQLSESENMKLRAKLDELKLKYEPEETVEVPVLKKRREVLPVDITTAKDACVNNSALGGEVYRLPPQKEETQSCPNSLEDNNLQLEKSVSIYTPVVSLSPHKNLPVDMQLKKEKKCVKLIGVPADAEALSERSGNTPNSPRLAAESKLQTEVKEGKETSSKLEKETCKKLHPILYVSSKSTPETQCPQQ |
| binds | ^mChSpindly^CC2* (R295E-K297E) (protein, UniProt Q96EA4 1-605) MEADIITNLRCRLKEAEEERLKAAQYGLQLVESQNELQNQLDKCRNEMMTMTESYEQEKYTLQREVELKSRMLESLSCECEAIKQQQKMHLEKLEEQLSRSHGQEVNELKTKIEKLKVELDEARLSEKQLKHQVDHQKELLSCKSEELRVMSERVQESMSSEMLALQIELTEMESMKTTLKEEVNELQYRQEQLELLITNLMRQVDRLKEEKEEREKEAVSYYNALEKARVANQDLQVQLDQALQQALDPNSKGNSLFAEVEDRRAAMERQLISMKVKYQSLKKQNVFNREQMQEMELQIATLLQMKGSQTEFEQQERLLAMLEQKNGEIKHLLGEIRNLEKFKNLYDSMESKPSVDSGTLEDNTYYTDLLQMKLDNLNKEIESTKGELSIQRMKALFESQRALDIERKLFANERCLQLSESENMKLRAKLDELKLKYEPEETVEVPVLKKRREVLPVDITTAKDACVNNSALGGEVYRLPPQKEETQSCPNSLEDNNLQLEKSVSIYTPVVSLSPHKNLPVDMQLKKEKKCVKLIGVPADAEALSERSGNTPNSPRLAAESKLQTEVKEGKETSSKLEKETCKKLHPILYVSSKSTPETQCPQQ |

The next lines start with the binder.

| Binder | binding |
| --- | --- |
| ^mChSpindly^33–605 (domain or fragment, UniProt Q96EA4 33-605) SQNELQNQLDKCRNEMMTMTESYEQEKYTLQREVELKSRMLESLSCECEAIKQQQKMHLEKLEEQLSRSHGQEVNELKTKIEKLKVELDEARLSEKQLKHQVDHQKELLSCKSEELRVMSERVQESMSSEMLALQIELTEMESMKTTLKEEVNELQYRQEQLELLITNLMRQVDRLKEEKEEREKEAVSYYNALEKARVANQDLQVQLDQALQQALDPNSKGNSLFAEVEDRRAAMERQLISMKVKYQSLKKQNVFNREQMQRMKLQIATLLQMKGSQTEFEQQERLLAMLEQKNGEIKHLLGEIRNLEKFKNLYDSMESKPSVDSGTLEDNTYYTDLLQMKLDNLNKEIESTKGELSIQRMKALFESQRALDIERKLFANERCLQLSESENMKLRAKLDELKLKYEPEETVEVPVLKKRREVLPVDITTAKDACVNNSALGGEVYRLPPQKEETQSCPNSLEDNNLQLEKSVSIYTPVVSLSPHKNLPVDMQLKKEKKCVKLIGVPADAEALSERSGNTPNSPRLAAESKLQTEVKEGKETSSKLEKETCKKLHPILYVSSKSTPETQCPQQ | binds |
| ^mChSpindly^ΔRV (protein, UniProt Q96EA4 1-605) MEADIITNLRCRLKEAEEERLKAAQYGLQLVESQNELQNQLDKCRNEMMTMTESYEQEKYTLQREVELKSRMLESLSCECEAIKQQQKMHLEKLEEQLSRSHGQEVNELKTKIEKLKVELDEARLSEKQLKHQVDHQKELLSCKSEELRVMSEQESMSSEMLALQIELTEMESMKTTLKEEVNELQYRQEQLELLITNLMRQVDRLKEEKEEREKEAVSYYNALEKARVANQDLQVQLDQALQQALDPNSKGNSLFAEVEDRRAAMERQLISMKVKYQSLKKQNVFNREQMQRMKLQIATLLQMKGSQTEFEQQERLLAMLEQKNGEIKHLLGEIRNLEKFKNLYDSMESKPSVDSGTLEDNTYYTDLLQMKLDNLNKEIESTKGELSIQRMKALFESQRALDIERKLFANERCLQLSESENMKLRAKLDELKLKYEPEETVEVPVLKKRREVLPVDITTAKDACVNNSALGGEVYRLPPQKEETQSCPNSLEDNNLQLEKSVSIYTPVVSLSPHKNLPVDMQLKKEKKCVKLIGVPADAEALSERSGNTPNSPRLAAESKLQTEVKEGKETSSKLEKETCKKLHPILYVSSKSTPETQCPQQ | binds |
| GST-Spindly^CC2* (protein, UniProt Q96EA4 1-605) MEADIITNLRCRLKEAEEERLKAAQYGLQLVESQNELQNQLDKCRNEMMTMTESYEQEKYTLQREVELKSRMLESLSCECEAIKQQQKMHLEKLEEQLSRSHGQEVNELKTKIEKLKVELDEARLSEKQLKHQVDHQKELLSCKSEELRVMSERVQESMSSEMLALQIELTEMESMKTTLKEEVNELQYRQEQLELLITNLMRQVDRLKEEKEEREKEAVSYYNALEKARVANQDLQVQLDQALQQALDPNSKGNSLFAEVEDRRAAMERQLISMKVKYQSLKKQNVFNREQMQEMELQIATLLQMKGSQTEFEQQERLLAMLEQKNGEIKHLLGEIRNLEKFKNLYDSMESKPSVDSGTLEDNTYYTDLLQMKLDNLNKEIESTKGELSIQRMKALFESQRALDIERKLFANERCLQLSESENMKLRAKLDELKLKYEPEETVEVPVLKKRREVLPVDITTAKDACVNNSALGGEVYRLPPQKEETQSCPNSLEDNNLQLEKSVSIYTPVVSLSPHKNLPVDMQLKKEKKCVKLIGVPADAEALSERSGNTPNSPRLAAESKLQTEVKEGKETSSKLEKETCKKLHPILYVSSKSTPETQCPQQ | binds |
| mCherry-tagged full-length Spindly (^mChSpindly^FL) (protein, UniProt Q96EA4 1-605) MEADIITNLRCRLKEAEEERLKAAQYGLQLVESQNELQNQLDKCRNEMMTMTESYEQEKYTLQREVELKSRMLESLSCECEAIKQQQKMHLEKLEEQLSRSHGQEVNELKTKIEKLKVELDEARLSEKQLKHQVDHQKELLSCKSEELRVMSERVQESMSSEMLALQIELTEMESMKTTLKEEVNELQYRQEQLELLITNLMRQVDRLKEEKEEREKEAVSYYNALEKARVANQDLQVQLDQALQQALDPNSKGNSLFAEVEDRRAAMERQLISMKVKYQSLKKQNVFNREQMQRMKLQIATLLQMKGSQTEFEQQERLLAMLEQKNGEIKHLLGEIRNLEKFKNLYDSMESKPSVDSGTLEDNTYYTDLLQMKLDNLNKEIESTKGELSIQRMKALFESQRALDIERKLFANERCLQLSESENMKLRAKLDELKLKYEPEETVEVPVLKKRREVLPVDITTAKDACVNNSALGGEVYRLPPQKEETQSCPNSLEDNNLQLEKSVSIYTPVVSLSPHKNLPVDMQLKKEKKCVKLIGVPADAEALSERSGNTPNSPRLAAESKLQTEVKEGKETSSKLEKETCKKLHPILYVSSKSTPETQCPQQ | no binding (tested: Spindly construct 8 µM, PE 3 µM) |
| Spindly^1–440 (domain or fragment, UniProt Q96EA4 1-440) MEADIITNLRCRLKEAEEERLKAAQYGLQLVESQNELQNQLDKCRNEMMTMTESYEQEKYTLQREVELKSRMLESLSCECEAIKQQQKMHLEKLEEQLSRSHGQEVNELKTKIEKLKVELDEARLSEKQLKHQVDHQKELLSCKSEELRVMSERVQESMSSEMLALQIELTEMESMKTTLKEEVNELQYRQEQLELLITNLMRQVDRLKEEKEEREKEAVSYYNALEKARVANQDLQVQLDQALQQALDPNSKGNSLFAEVEDRRAAMERQLISMKVKYQSLKKQNVFNREQMQRMKLQIATLLQMKGSQTEFEQQERLLAMLEQKNGEIKHLLGEIRNLEKFKNLYDSMESKPSVDSGTLEDNTYYTDLLQMKLDNLNKEIESTKGELSIQRMKALFESQRALDIERKLFANERCLQLSESENMKLRAKLDELKLKYEP | no binding (tested: Spindly construct 8 µM, PE 3 µM) |
